Experimental data reported in article PMC7819943, “Rice protein-binding microarrays: a tool to detect cis-acting elements near promoter regions in rice”.
The list shows a part of the results.

molecular target: T1, OsSMF1 (Oryza sativa, UniProt Q6ZLB0 1-436); assay: protein-binding microarray (RPBM); PBS, 2% BSA, 51.3 ng/ul salmon testes DNA, 50 uM zinc acetate, 200 nM TF, 25 C, 1 h; high values mean tight binding; details: protein: recombinant; tags: N-terminal polyhistidine and DsRed monomer fusion (pET32a); chain copies: 2; label: CyDye5-dUTP incorporated in the synthesized complementary strand; 3' TTTTT single-stranded linker to array surface; dsDNA, one strand shown
T1 sequence: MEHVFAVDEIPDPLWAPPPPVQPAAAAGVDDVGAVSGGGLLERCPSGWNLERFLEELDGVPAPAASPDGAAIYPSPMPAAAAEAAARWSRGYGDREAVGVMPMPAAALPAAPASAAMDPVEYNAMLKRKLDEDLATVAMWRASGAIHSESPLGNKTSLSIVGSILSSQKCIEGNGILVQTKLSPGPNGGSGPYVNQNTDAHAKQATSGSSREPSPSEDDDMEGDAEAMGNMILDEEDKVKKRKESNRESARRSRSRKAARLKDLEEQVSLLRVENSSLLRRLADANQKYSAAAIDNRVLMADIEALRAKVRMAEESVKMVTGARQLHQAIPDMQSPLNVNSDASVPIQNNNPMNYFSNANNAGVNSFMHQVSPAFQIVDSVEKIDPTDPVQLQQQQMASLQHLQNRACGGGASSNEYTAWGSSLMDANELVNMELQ
Summary of the method: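 Per-feature fluorescence intensity (arbitrary units), read on an Axon 4000B scanner, is the binding signal. Transcription factors carrying an N-terminal polyhistidine tag and DsRed fusion were expressed in E. coli BL21-CodonPlus and purified on Ni–NTA. A custom Agilent array, made double-stranded by primer extension with Cy5-dUTP and blocked with 2% BSA, was incubated with 200 nM protein in PBS, 2% BSA, salmon testes DNA and 50 µM zinc acetate at 25 °C for 1 h and then washed.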

Question: How did the binding signal turn out when “CCTTCACCTGTCTCCCATATGCGGCGTCACCCCACCTGATCGGAGTCACCTAGTGCAG” was run?
Answer: 4690 fluorescence intensity (a.u.)

Question: “CCATCCACCATTCACTTTCCCACCTACCTCCACTATTTATCGGAGTCACCTAGTGCAG” was tested. Which binding signal did it give?
Answer: 3430 fluorescence intensity (a.u.)

Question: How did the binding signal turn out when “AAATTGGGGAACACTGTTCCTAGTAAGCAAAAGCTTCTTCCGGAGTCACCTAGTGCAG” was run?
Answer: 4200 fluorescence intensity (a.u.)

Question: Which binding signal does the source give for “GTCGCCTCCCACGAACATGCCGCGTCGACGACGGCATGCACGGAGTCACCTAGTGCAG” here?
Answer: 4740 fluorescence intensity (a.u.)

Question: For “ACTTATGATATGAAACGGAGAGAGTAGTAGATAAGATTTTCGGAGTCACCTAGTGCAG”, which binding signal is on record?
Answer: 28400 fluorescence intensity (a.u.)

Question: “CACTTATTTTGCAACGGAGGTAGTATACAAGGCAACTGGTCGGAGTCACCTAGTGCAG” was tested. Which binding signal did it give?
Answer: 4230 fluorescence intensity (a.u.)

Question: With “CTCTTCTCCTTTTCTTCCCTGTCATCTGTGAGCTTTTGCTCGGAGTCACCTAGTGCAG” as the sequence, how does the binding signal read?
Answer: 3610 fluorescence intensity (a.u.)

Question: How did the binding signal turn out when “TCGACTCTGCCGGTGAGAGCGGTAGCGCGTGGCGGCCGTACGGAGTCACCTAGTGCAG” was run?
Answer: 3640 fluorescence intensity (a.u.)

Question: How did the binding signal turn out when “CTTTTCTTGTATATAAACGCGACCTTATAAAATTACTAGTCGGAGTCACCTAGTGCAG” was run?
Answer: 22600 fluorescence intensity (a.u.)

Question: “GGCTCCGGCTGCGCCGCGTCAACCGGCGGCACGAGGTGGGCGGAGTCACCTAGTGCAG” was tested. Which binding signal did it give?
Answer: 3920 fluorescence intensity (a.u.)

Question: How did the binding signal turn out when “GTCTCATTGTCCTCTAACGTGTGTCACTAACATATAGTTCCGGAGTCACCTAGTGCAG” was run?
Answer: 3770 fluorescence intensity (a.u.)

Question: Which binding signal does the source give for “TTCAGTTCAAGCTGCCGTGTCAGGCTGCAACAAGGTAATCCGGAGTCACCTAGTGCAG” here?
Answer: 5650 fluorescence intensity (a.u.)

Question: For “TTTAACACGTAATTGATCATGACTCATGAGCTAATCATCCCGGAGTCACCTAGTGCAG”, which binding signal is on record?
Answer: 6980 fluorescence intensity (a.u.)

Question: For “CGACACTTGCAGTAATCTATAACGAGTAACCAAAATTCGACGGAGTCACCTAGTGCAG”, which binding signal is on record?
Answer: 8700 fluorescence intensity (a.u.)

Question: Which binding signal does the source give for “CCTGTGTGTTGGTGCTGTCGGTATGTGGGTGGTGGTATTTCGGAGTCACCTAGTGCAG” here?
Answer: 3990 fluorescence intensity (a.u.)

Question: How did the binding signal turn out when “AAGTTTGTTTTGTCACGCCACCCAGGCTGACGCGACAACACGGAGTCACCTAGTGCAG” was run?
Answer: 8290 fluorescence intensity (a.u.)

Question: With “TTGGAGTTCTACAACCGACAGGTGCATGTTTCTCTGTACTCGGAGTCACCTAGTGCAG” as the sequence, how does the binding signal read?
Answer: 19400 fluorescence intensity (a.u.)

Question: Which binding signal does the source give for “TTGCAACCCACAAATATATGTGAGGCCACGTCATCGAGAACGGAGTCACCTAGTGCAG” here?
Answer: 19500 fluorescence intensity (a.u.)

Question: How did the binding signal turn out when “GTAGACGGCGGAGGGCTCGCTGCGGGAGGGCTTGGAGTGGCGGAGTCACCTAGTGCAG” was run?
Answer: 3760 fluorescence intensity (a.u.)

Question: Which binding signal does the source give for “CAGGCATGGTTCGGCCTGCCCTGTCACGGCCCATCTCGTGCGGAGTCACCTAGTGCAG” here?
Answer: 4240 fluorescence intensity (a.u.)

Question: How did the binding signal turn out when “CACAGTGGGCGGAACCCCAAGCGCATGGACACGGGTCTGCCGGAGTCACCTAGTGCAG” was run?
Answer: 36800 fluorescence intensity (a.u.)

Question: With “TCAATCCCAACAAAAGTTGTTTGAGCTGTGTATAAGGAGACGGAGTCACCTAGTGCAG” as the sequence, how does the binding signal read?
Answer: 34300 fluorescence intensity (a.u.)

Question: Which binding signal does the source give for “GATAGGAAATGGCCTGGTCCATGTGGCACGGTGGTGAACACGGAGTCACCTAGTGCAG” here?
Answer: 4320 fluorescence intensity (a.u.)

Question: For “ACCCATGGACGCGCTCAAGCCCTGACCATGGCGTACGTACCGGAGTCACCTAGTGCAG”, which binding signal is on record?
Answer: 3870 fluorescence intensity (a.u.)

Question: How did the binding signal turn out when “TGGCTGTGGTGACTTAAAATCCACGTGTAACCACACCTGCCGGAGTCACCTAGTGCAG” was run?
Answer: 15700 fluorescence intensity (a.u.)

Question: Which binding signal does the source give for “AACTTATGTAAAGATGTATATTGTTAAGTGAAAATATTGACGGAGTCACCTAGTGCAG” here?
Answer: 3220 fluorescence intensity (a.u.)

Question: “AGCCATGAACATGTGGCATATAAACTACCTGATCGCTACACGGAGTCACCTAGTGCAG” was tested. Which binding signal did it give?
Answer: 3820 fluorescence intensity (a.u.)

Question: “ATGTGTATGATGTGTTTGTTTATGTGTGGACTTTATAATACGGAGTCACCTAGTGCAG” was tested. Which binding signal did it give?
Answer: 4020 fluorescence intensity (a.u.)

Question: Which binding signal does the source give for “TTGCCGGTTTGTGCGGCAAGACGTGGCTTAACCTGTGCGTCGGAGTCACCTAGTGCAG” here?
Answer: 3780 fluorescence intensity (a.u.)

Question: Which binding signal does the source give for “ATCTAGACATGTATATATGTGTTTAGATTCATTAACATCTCGGAGTCACCTAGTGCAG” here?
Answer: 6380 fluorescence intensity (a.u.)

Question: How did the binding signal turn out when “TGCTCTGCGCGTTCTTGATGTTTGTCAGCAGCTACTTGCACGGAGTCACCTAGTGCAG” was run?
Answer: 3490 fluorescence intensity (a.u.)

Question: How did the binding signal turn out when “TACTCCGGCTAACAAGTACAGTAGTAATAACCAATTGAACCGGAGTCACCTAGTGCAG” was run?
Answer: 3200 fluorescence intensity (a.u.)

Question: How did the binding signal turn out when “CCTGCCCGGTGTGCTGTGACTTGCCGTTATCGTCACCGTTCGGAGTCACCTAGTGCAG” was run?
Answer: 6230 fluorescence intensity (a.u.)

Question: Which binding signal does the source give for “GATCCTTTCAAGCTTCCTCGCCAAGTCAATCGAGATCATGCGGAGTCACCTAGTGCAG” here?
Answer: 3700 fluorescence intensity (a.u.)

Question: “CCAGCCAAGGCAGCAACGTGACGATATCCACCTCGAAGATCGGAGTCACCTAGTGCAG” was tested. Which binding signal did it give?
Answer: 3920 fluorescence intensity (a.u.)

Question: Which binding signal does the source give for “AATTAAAGACTCCTCCTTGTTTGCGCACGCTCACTCGCGCCGGAGTCACCTAGTGCAG” here?
Answer: 3230 fluorescence intensity (a.u.)

Question: “GGTACGCCAACGTCAGCACCGGCGATCTCCCGGCGAGCGTCGGAGTCACCTAGTGCAG” was tested. Which binding signal did it give?
Answer: 6510 fluorescence intensity (a.u.)

Question: For “CGTCGGTTTCTGATCGGAACAGGGCCGATCGAGAGTGCGACGGAGTCACCTAGTGCAG”, which binding signal is on record?
Answer: 24600 fluorescence intensity (a.u.)

Question: How did the binding signal turn out when “CATGTCGGCCGACCGTTGCGCCCGCCGTGCCGCTGCCACCCGGAGTCACCTAGTGCAG” was run?
Answer: 14800 fluorescence intensity (a.u.)

Question: Which binding signal does the source give for “CCGCGCCGAGGGCTGTGACGTGTCGACCGAGCCAAGAACCCGGAGTCACCTAGTGCAG” here?
Answer: 9000 fluorescence intensity (a.u.)

Question: With “TGCGGGCTCCGCTGCTGAATATGACTCAAACAATTTTACTCGGAGTCACCTAGTGCAG” as the sequence, how does the binding signal read?
Answer: 3660 fluorescence intensity (a.u.)

Question: “TCTGCGTTCTACTTCGCTATGACGTAGAACCTTGTGCGTCCGGAGTCACCTAGTGCAG” was tested. Which binding signal did it give?
Answer: 5280 fluorescence intensity (a.u.)
